Some of the results follow. Repeats in this data set agree poorly, so a single value says little.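 Researchers measured free-swimming zebrafish larvae's O-bend response probability to dark flashes (naive: first five; training: remaining flashes of four 60-flash blocks; test: later 60-flash block) and OMR turning toward alternating leftward/rightward LED motion. Six treated larvae were compared to sixty 0.1% DMSO controls, with |SSMD|≥2 marking a hit.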
What follows are compounds tested on Danio rerio larvae (5 dpf, TLF) (assay: OMR-Perf (SSMD vs DMSO vehicle); higher = higher than vehicle (e.g. higher dark-flash O-bend response probability, or better optomotor performance)). Settings: 10 µM; pre-incubation: 30-90 min.
Compound `CCCCCCCCCCOc1cc2c(O)c(C(=O)OCC)cnc2cc1OCC` [Decoquinate] has an OMR-Perf of 0.366. `O=C(/C=C/c1ccc(O)c(O)c1)O[C@@H]1C[C@@](O)(C(=O)O)C[C@@H](O)[C@H]1O` [Chlorogenic Acid] gave an OMR-Perf of -0.649. In the case of `Cc1cc(C)nc(NS(=O)(=O)c2ccc(N)cc2)n1` [Sulfamethazine], the OMR-Perf is reported as -0.48. For `O=C(O)c1cc2cccc([N+](=O)[O-])c2[nH]1`, the OMR-Perf was -0.14. `Cc1cccc(-c2[nH]c(C(C)(C)C)nc2-c2ccc3c(c2)OCO3)n1` gave an OMR-Perf of -0.769. Compound `CCN(CCO)CCCOc1ccc2c(Nc3cc(CC(=O)Nc4cccc(F)c4)n[nH]3)ncnc2c1` [Barasertib (AZD1152-HQPA)] has an OMR-Perf of -0.0218. `CCOC(=O)C1=C[C@@]2(CC)CCCN3CCc4c(n1c1ccccc41)[C@@H]32` [Vinpocetine (Cavinton)] gave an OMR-Perf of -0.501. In the case of `COc1c2ccoc2cc2oc(=O)ccc12` [Bergapten], the OMR-Perf is reported as 0.0767. In the case of `NCCCC(O)(P(=O)(O)O)P(=O)(O)O.O.O.O.[Na]` [Alendronate (Fosamax)], the OMR-Perf is reported as 0.24. `COc1ccc2ccc(=O)oc2c1CC=C(C)C` [Osthole] gave an OMR-Perf of -0.759. `CCN[C@@H]1C[C@@H](N)[C@@H](O[C@H]2OC(CN)=CC[C@@H]2N)[C@H](O)[C@H]1OC1OC[C@](C)(O)[C@H](NC)[C@@H]1O.CCN[C@@H]1C[C@@H](N)[C@@H](O[C@H]2OC(CN)=CC[C@@H]2N)[C@H](O)[C@H]1OC1OC[C@](C)(O)[C@H](NC)[C@@H]1O.O=S(=O)(O)O.O=S(=O)(O)O.O=S(=O)(O)O.O=S(=O)(O)O.O=S(=O)(O)O` (stereo partly specified) [Netilmicin Sulfate] was tested, and the OMR-Perf was -0.277. With `CC(C)c1cc(C(C)C)c(CC(=O)NS(=O)(=O)Oc2c(C(C)C)cccc2C(C)C)c(C(C)C)c1` [Avasimibe] the OMR-Perf was 0.0506. `COC(=O)[C@H]1[C@H]2C[C@@H]3c4[nH]c5cc(OC)ccc5c4CCN3C[C@H]2C[C@@H](OC(=O)c2cc(OC)c(OC)c(OC)c2)[C@@H]1OC` [Reserpine] gave an OMR-Perf of -0.934. `CN1CCC[C@@H]1CCO[C@](C)(c1ccccc1)c1ccc(Cl)cc1.O=C(O)/C=C/C(=O)O` [Clemastine Fumarate] was tested, and the OMR-Perf was -0.346. `CCN(CC)CCCC(C)Nc1c2ccc(Cl)cc2nc2ccc(OC)cc12.Cl.Cl` (stereo unspecified) [Quinacrine 2HCl] showed an OMR-Perf of -0.536. `CC[C@H](NC(=O)[C@H](C)NC)C(=O)N1C[C@@H](O)C[C@H]1Cc1c(-c2[nH]c3cc(F)ccc3c2C[C@@H]2C[C@H](O)CN2C(=O)[C@H](CC)NC(=O)[C@H](C)NC)[nH]c2cc(F)ccc12` [Birinapant] showed an OMR-Perf of 0.0481. In the case of `COc1cc(F)c(C(C)C)cc1-c1ccc(C(F)(F)F)cc1CN1C(=O)O[C@H](c2cc(C(F)(F)F)cc(C(F)(F)F)c2)[C@H]1C` [Anacetrapib (MK-0859)], the OMR-Perf is reported as 0.524. Compound `C=C1CC[C@H](O)C/C1=C\C=C1/CCC[C@@]2(C)[C@H]1CC[C@H]2[C@H](C)CCCC(C)(C)O` [Calcifediol] has an OMR-Perf of -1.09. Compound `O=C(c1cncc(Br)c1)N1CCC(N2CCCC2)CC1` has an OMR-Perf of 0.393. In the case of `CC(C)(C)NC[C@H](O)COc1nsnc1N1CCOCC1.O=C(O)/C=C/C(=O)O` [Timolol Maleate], the OMR-Perf is reported as -0.311. `CCN[C@H]1CN(CCCOC)S(=O)(=O)c2sc(S(N)(=O)=O)cc21` [Brinzolamide] was tested, and the OMR-Perf was -0.847.

The compounds below were run on Danio rerio larvae (5 dpf, TLF) (assay: Prob-Test (SSMD vs DMSO vehicle); higher = higher than vehicle (e.g. higher dark-flash O-bend response probability, or better optomotor performance)). Settings: 10 µM; pre-incubation: 30-90 min.
In the case of `CC(C)(Sc1cc(C(C)(C)C)c(O)c(C(C)(C)C)c1)Sc1cc(C(C)(C)C)c(O)c(C(C)(C)C)c1` [Probucol], the Prob-Test is reported as 0.373. Work on `NS(=O)(=O)C#Cc1ccccc1` [Pifithrin-Î¼] yielded a Prob-Test of -0.527. `Cc1cc(Cl)ccc1OCCCC(=O)NO` [Droxinostat] gave a Prob-Test of -0.0352. `CS(=O)(=O)CCNCc1ccc(-c2ccc3ncnc(Nc4ccc(OCc5cccc(F)c5)c(Cl)c4)c3c2)o1` [Lapatinib] showed a Prob-Test of 0.0951. For `O=C(Nc1c(Cl)cncc1Cl)c1ccc(OC(F)F)c(OCC2CC2)c1` [Roflumilast], the Prob-Test was -0.474. `C#C[C@@]1(O)CC[C@H]2[C@@H]3CCC4=CC(=O)CC[C@@H]4[C@@H]3CC[C@@]21CC` [Levonorgestrel] was tested, and the Prob-Test was -0.643. `COc1cc2c(cc1OC)-c1cc3ccc(OC)c(OC)c3c[n+]1CC2.[Cl-]` [Palmatine chloride] gave a Prob-Test of 0.385. `CC1(C)[C@@H](O[C@H]2O[C@H](C(=O)O)[C@@H](O)[C@H](O)[C@@H]2O[C@@H]2O[C@H](C(=O)O)[C@@H](O)[C@H](O)[C@@H]2O)CC[C@@]2(C)[C@H]1CC[C@]1(C)[C@H]2C(=O)C=C2[C@H]3C[C@@](C)(C(=O)O)CC[C@]3(C)CC[C@]21C` [Glycyrrhizic Acid] was tested, and the Prob-Test was 0.403. Compound `CN1CCc2c(c3ccccc3n2Cc2ccc(C(=O)NO)cc2)C1.Cl` [Tubastatin A HCl] has a Prob-Test of -0.125. For `CN(C)CCOc1ccc(-c2nc(-c3ccncc3)c(-c3ccc4c(c3)CC/C4=N/O)[nH]2)cc1`, the Prob-Test was 0.215. In the case of `CC(=O)OCC(CCn1cnc2cnc(N)nc21)COC(C)=O` [Famciclovir], the Prob-Test is reported as 0.34. For `CCc1cncnc1N1CCN(Cc2nc3cc(C(F)(F)F)ccc3[nH]2)CC1`, the Prob-Test was 0.00135. With `CO[C@H]1/C=C/O[C@@]2(C)Oc3c(C)c(O)c4c(O)c(c(/C=N/N5CCN(C)CC5)c(O)c4c3C2=O)NC(=O)/C(C)=C/C=C/[C@H](C)[C@H](O)[C@@H](C)[C@@H](O)[C@@H](C)[C@H](OC(C)=O)[C@@H]1C` [Rifampin] the Prob-Test was 0.322. `CC(C)c1ccc(NC(=O)Cn2cnc3c2c(=O)n(C)c(=O)n3C)cc1` showed a Prob-Test of 0.00401. In the case of `CCS(=O)(=O)Nc1ccc2c(c1)/C(=C(/Nc1ccc(CN3CCCCC3)cc1)c1ccccc1)C(=O)N2` [Hesperadin], the Prob-Test is reported as 0.225. With `Cc1ccccc1C(=O)Nc1ccc(C(=O)N2CCCC(N(C)C)c3ccccc32)cc1` (stereo unspecified) [Mozavaptan] the Prob-Test was -0.041. `CC(C)C[C@H](NC(=O)[C@H](CCc1ccccc1)NC(=O)CN1CCOCC1)C(=O)N[C@@H](Cc1ccccc1)C(=O)N[C@@H](CC(C)C)C(=O)[C@@]1(C)CO1` [Carfilzomib (PR-171)] showed a Prob-Test of 0.27. `O=c1[nH]c(=O)n([C@H]2C[C@H](O)[C@@H](CO)O2)cc1C(F)(F)F` [Trifluridine] gave a Prob-Test of 0.329. Work on `COc1ccc([C@H]2CNC(=O)C2)cc1OC1CCCC1` [S- (+)-Rolipram] yielded a Prob-Test of -0.372. `CCCCCCCCCCOc1cc2c(O)c(C(=O)OCC)cnc2cc1OCC` [Decoquinate] was tested, and the Prob-Test was 0.43. `O=C(/C=C/c1ccc(O)c(O)c1)O[C@@H]1C[C@@](O)(C(=O)O)C[C@@H](O)[C@H]1O` [Chlorogenic Acid] was tested, and the Prob-Test was -0.332. Work on `Cc1cc(C)nc(NS(=O)(=O)c2ccc(N)cc2)n1` [Sulfamethazine] yielded a Prob-Test of 0.109. Compound `O=C(O)c1cc2cccc([N+](=O)[O-])c2[nH]1` has a Prob-Test of 0.206. In the case of `Cc1cccc(-c2[nH]c(C(C)(C)C)nc2-c2ccc3c(c2)OCO3)n1`, the Prob-Test is reported as -0.817. `CCN(CCO)CCCOc1ccc2c(Nc3cc(CC(=O)Nc4cccc(F)c4)n[nH]3)ncnc2c1` [Barasertib (AZD1152-HQPA)] gave a Prob-Test of 0.171. `CCOC(=O)C1=C[C@@]2(CC)CCCN3CCc4c(n1c1ccccc41)[C@@H]32` [Vinpocetine (Cavinton)] was tested, and the Prob-Test was -0.998. Compound `COc1c2ccoc2cc2oc(=O)ccc12` [Bergapten] has a Prob-Test of -0.115. Work on `NCCCC(O)(P(=O)(O)O)P(=O)(O)O.O.O.O.[Na]` [Alendronate (Fosamax)] yielded a Prob-Test of 0.0152. `COc1ccc2ccc(=O)oc2c1CC=C(C)C` [Osthole] showed a Prob-Test of -1.81. `CCN[C@@H]1C[C@@H](N)[C@@H](O[C@H]2OC(CN)=CC[C@@H]2N)[C@H](O)[C@H]1OC1OC[C@](C)(O)[C@H](NC)[C@@H]1O.CCN[C@@H]1C[C@@H](N)[C@@H](O[C@H]2OC(CN)=CC[C@@H]2N)[C@H](O)[C@H]1OC1OC[C@](C)(O)[C@H](NC)[C@@H]1O.O=S(=O)(O)O.O=S(=O)(O)O.O=S(=O)(O)O.O=S(=O)(O)O.O=S(=O)(O)O` (stereo partly specified) [Netilmicin Sulfate] gave a Prob-Test of 0.101. In the case of `CC(C)c1cc(C(C)C)c(CC(=O)NS(=O)(=O)Oc2c(C(C)C)cccc2C(C)C)c(C(C)C)c1` [Avasimibe], the Prob-Test is reported as 0.47. With `COC(=O)[C@H]1[C@H]2C[C@@H]3c4[nH]c5cc(OC)ccc5c4CCN3C[C@H]2C[C@@H](OC(=O)c2cc(OC)c(OC)c(OC)c2)[C@@H]1OC` [Reserpine] the Prob-Test was -0.219. With `CN1CCC[C@@H]1CCO[C@](C)(c1ccccc1)c1ccc(Cl)cc1.O=C(O)/C=C/C(=O)O` [Clemastine Fumarate] the Prob-Test was -0.76. Compound `CCN(CC)CCCC(C)Nc1c2ccc(Cl)cc2nc2ccc(OC)cc12.Cl.Cl` (stereo unspecified) [Quinacrine 2HCl] has a Prob-Test of -0.0138. Compound `CC[C@H](NC(=O)[C@H](C)NC)C(=O)N1C[C@@H](O)C[C@H]1Cc1c(-c2[nH]c3cc(F)ccc3c2C[C@@H]2C[C@H](O)CN2C(=O)[C@H](CC)NC(=O)[C@H](C)NC)[nH]c2cc(F)ccc12` [Birinapant] has a Prob-Test of 0.137.

Reference: the supplement of paper PMC10727501
